# Results: the supplement of paper PMC7125110
# ± gives the standard error. Many entries were measured with a wide error.
# B1: glmS ribozyme (parent)
# chain: AUAAAAGCGCCAGAACUACAGAAAUGUAGUUGACGAGGAGGAGGUUUAUCGAAUUUUCGGCGGAUGCCUCCAAA
# Variants of: B1
# Assay: kcat; higher = faster cleavage; RNA array
# Details: with glucosamine-6-phosphate
# Procedure, shortened: (§1)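 Tiles bearing barcoded ribozyme variants, transcribed in situ by E. coli RNA polymerase on sequenced MiSeq chips, were imaged over ~14 h at 37 °C using a hybridised Cy3 probe. Glucosamine-6-phosphate was supplied at 40 μM to 10 mM in HEPES/KCl/Mg(OAc)2 buffer. kobs came from one- or two-exponential decay fits to normalised per-tile medians, and weighted Michaelis–Menten fits then provided kcat and KM.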
row,Variant,kcat
1,A15U U46C C70G,4.64e-05 ± 2.4e-05 s⁻¹
2,C50G A64G,3.89e-05 ± 2.5e-05 s⁻¹
3,G40U U65G,0.00373 ± 0.0025 s⁻¹
4,G62U C71U,< 1e-05 s⁻¹
5,A15U U56A,0.0067 ± 0.0038 s⁻¹
6,G32C U69A,2.41e-05 ± 1.8e-05 s⁻¹
7,G37C U54G,5.61e-05 ± 4e-05 s⁻¹
8,A15G U30G C70U,0.00172 ± 0.0012 s⁻¹
9,C16G U65G,0.00228 ± 0.0011 s⁻¹
10,G43A U47C,1.32e-05 ± 6.8e-06 s⁻¹
11,G62U C67G C68U,1.17e-05 ± 4.6e-06 s⁻¹
12,A15G G32A,0.00262 ± 0.0015 s⁻¹
13,G37A C50G C71A,5.67e-05 ± 3.8e-05 s⁻¹
14,A39G U54G,0.00463 ± 0.0031 s⁻¹
15,U31A U55G,0.0116 ± 0.0067 s⁻¹
16,G37A U56C G66U,9.43e-05 ± 5.3e-05 s⁻¹
17,U54C U69A,0.000112 ± 7.5e-06 s⁻¹
18,A53U U69C,0.00307 ± 0.0027 s⁻¹

row,Variant,kcat
1,C34U G38U,< 1e-05 s⁻¹
2,G40U U55G,0.00263 ± 0.0014 s⁻¹
3,C16A U57C,< 1e-05 s⁻¹
4,U31G U54G,0.0117 ± 0.0073 s⁻¹
5,A48G U54G,0.000141 ± 9.6e-06 s⁻¹
6,U31C G37U,< 1e-05 s⁻¹
7,U49A C70A,1.28e-05 ± 6.6e-06 s⁻¹
8,U47G U57G C61G C67U,4.79e-05 ± 3.5e-05 s⁻¹
9,U30G A36G C71G,1.69e-05 ± 3.9e-06 s⁻¹
10,A36C G60A,< 1e-05 s⁻¹
11,A15G U57A,0.000632 ± 0.00046 s⁻¹
12,A53U C71U,0.04 ± 0.023 s⁻¹
13,U55A C71U,0.0122 ± 0.0081 s⁻¹
14,U55A C71A,0.0116 ± 0.0077 s⁻¹
15,A53U U56C,0.00641 ± 0.0039 s⁻¹
16,U54G C67U,0.00298 ± 0.0018 s⁻¹
17,G29U A64U,1.06e-05 ± 2.5e-07 s⁻¹
18,G32C C70A,1.5e-05 ± 8.1e-06 s⁻¹

# Variants of: B1
# Assay: KM; higher = weaker cofactor use; RNA array
# Details: with glucosamine-6-phosphate
# Procedure, shortened: as §1
row,Variant,KM
1,A14G G37A U54A,4940 ± 3400 µM
2,C11A C34G G60U A64G,65.6 ± 55 µM
3,G40U U65G,8490 ± 8200 µM
4,A15U U56A,3510 ± 2600 µM
5,A6U U31A,1630 ± 1200 µM
6,A15G G41C,2170 ± 310 µM
7,C16U G41A,1010 ± 720 µM
8,C16U G29U,1560 ± 910 µM
9,C16G A64U,361 ± 210 µM
10,A12U G41U,232 ± 190 µM
11,C16G U65G,7750 ± 4900 µM
12,G9A G13C U30G G63U U69G,50.4 ± 49 µM
13,C16A U30A,1480 ± 790 µM
14,U30A U55A C71U,1100 ± 720 µM
15,A12G U45G,5260 ± 300 µM
16,A6C U65A,3180 ± 190 µM
17,A6U A12C,5730 ± 4100 µM
18,A15G G32A,2650 ± 2000 µM
19,A15G G32C,8170 ± 3300 µM
20,A15G C70A,481 ± 310 µM
21,U31A U55G,2170 ± 1500 µM
22,G37A U56C G66U,28500 ± 22000 µM
23,U54C U69A,82 ± 22 µM
24,A15C U57A,2770 ± 750 µM
25,G40U U55G,2180 ± 1500 µM

# Some values from the entries so far:
# Value for U54C U69A under KM: 82 ± 22 µM
# Value for G37A U56C G66U under KM: 28500 ± 22000 µM
# Value for C16G U65G under KM: 7750 ± 4900 µM

# Further records follow:

row,Variant,KM
1,U31G U54G,2990 ± 2300 µM
2,A14G U46A,4160 ± 2300 µM
3,A48G U54G,761 ± 180 µM
4,C11A C68G,13.3 ± 6.9 µM
5,C19A G59U,27000 ± 9200 µM
6,U31C G37U,160 ± 82 µM
7,C16U U65C,2290 ± 1100 µM
8,C10U C71U,1800 ± 1000 µM
9,A14G A15G,205 ± 110 µM
10,C11U U47C,1150 ± 290 µM
11,G13C U31C,3460 ± 1200 µM
12,A12G A42C,26 ± 24 µM
13,C16A U54C,2480 ± 1300 µM
14,G29U G59A,2710 ± 2300 µM
15,A12U G40C,1420 ± 310 µM
16,A53U C71U,3500 ± 2300 µM
17,U55A C71U,470 ± 440 µM
18,U55A C71A,1420 ± 1200 µM
19,A53U U56C,7740 ± 5900 µM
20,C16U C61U,480 ± 260 µM
21,C16U C61G,322 ± 170 µM
22,U54G C67U,417 ± 370 µM
23,G29U A64U,4920 ± 300 µM
24,G29U A64G,1770 ± 1400 µM
25,A12U G29A A52U,5430 ± 2900 µM

# Some of the entries so far, as tab-separated lines:
row	Variant	KM
11	G13C U31C	3460 ± 1200 µM
23	G29U A64U	4920 ± 300 µM

# Variants of: B1
# Assay: self-cleavage kobs at 40 uM GlcN6P; higher = faster cleavage; RNA array
# Details: with glucosamine-6-phosphate
# Procedure, shortened: as §1
row,Variant,self-cleavage kobs at 40 uM GlcN6P
1,C50G A64G,2.4e-05 ± 1.4e-05 s⁻¹
2,A15G G41C,1.82e-05 ± 1e-05 s⁻¹
3,C16G U65G,3.31e-05 ± 2.9e-05 s⁻¹
4,C16U U65C,2.51e-05 ± 1.9e-05 s⁻¹
5,U47G U57G C61G C67U,4.11e-05 ± 2.4e-05 s⁻¹

# Variants of: B1
# Assay: self-cleavage kobs at 2500 uM GlcN6P; higher = faster cleavage; RNA array
# Details: with glucosamine-6-phosphate
# Procedure, shortened: as §1
row,Variant,self-cleavage kobs at 2500 uM GlcN6P
1,C50G A64G,0.000664 ± 0.00033 s⁻¹
2,A15G U30G C70U,0.00252 ± 0.0014 s⁻¹
3,A53U U69C,0.001 ± 0.00052 s⁻¹

# Variants of: B1
# Assay: self-cleavage kobs at 160 uM GlcN6P; higher = faster cleavage; RNA array
# Details: with glucosamine-6-phosphate
# Procedure, shortened: as §1
row,Variant,self-cleavage kobs at 160 uM GlcN6P
1,G40U U65G,3.53e-05 ± 2.6e-05 s⁻¹
2,A48G U54G,2.48e-05 ± 1.4e-05 s⁻¹
3,A12U G29A A52U,2.54e-05 ± 2.1e-05 s⁻¹

# Variants of: B1
# Assay: self-cleavage kobs at 640 uM GlcN6P; higher = faster cleavage; RNA array
# Details: with glucosamine-6-phosphate
# Procedure, shortened: as §1
row,Variant,self-cleavage kobs at 640 uM GlcN6P
1,G37C U54G,4.06e-05 ± 2.1e-05 s⁻¹
2,A6U A12C,1.63e-05 ± 1.5e-05 s⁻¹
3,A15G G32C,4.12e-05 ± 2.6e-05 s⁻¹
4,C16A U57C,0.00193 ± 0.0019 s⁻¹
5,C10U C71U,1.6e-05 ± 8.8e-06 s⁻¹

# Variants of: B1
# Assay: self-cleavage kobs at 10000 uM GlcN6P; higher = faster cleavage; RNA array
# Details: with glucosamine-6-phosphate
# Procedure, shortened: as §1
row,Variant,self-cleavage kobs at 10000 uM GlcN6P
1,U47G U57G C61G C67U,2.75e-05 ± 1.9e-05 s⁻¹
